Results taken from the supplement of paper PMC10849652.
Some of the results follow. Residues, ends and D or L forms follow the SMILES beside them. *: point of attachment. Cbz = O=C(OCc1ccccc1)*

Protein sequences, listed by entry. Tags and fused reporters are not part of them. Lines headed by an entry give the natural chain unless they say otherwise; changes in a name come on top.
UniProt O00180: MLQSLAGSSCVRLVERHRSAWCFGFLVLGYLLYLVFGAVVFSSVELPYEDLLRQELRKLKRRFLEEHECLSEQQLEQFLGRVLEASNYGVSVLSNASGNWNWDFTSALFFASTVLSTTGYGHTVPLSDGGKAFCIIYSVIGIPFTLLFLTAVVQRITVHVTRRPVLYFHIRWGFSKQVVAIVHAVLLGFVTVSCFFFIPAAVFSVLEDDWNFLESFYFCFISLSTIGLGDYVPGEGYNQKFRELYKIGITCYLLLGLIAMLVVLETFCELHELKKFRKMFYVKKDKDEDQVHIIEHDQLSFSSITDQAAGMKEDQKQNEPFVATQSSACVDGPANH
UniProt Q9BVG8: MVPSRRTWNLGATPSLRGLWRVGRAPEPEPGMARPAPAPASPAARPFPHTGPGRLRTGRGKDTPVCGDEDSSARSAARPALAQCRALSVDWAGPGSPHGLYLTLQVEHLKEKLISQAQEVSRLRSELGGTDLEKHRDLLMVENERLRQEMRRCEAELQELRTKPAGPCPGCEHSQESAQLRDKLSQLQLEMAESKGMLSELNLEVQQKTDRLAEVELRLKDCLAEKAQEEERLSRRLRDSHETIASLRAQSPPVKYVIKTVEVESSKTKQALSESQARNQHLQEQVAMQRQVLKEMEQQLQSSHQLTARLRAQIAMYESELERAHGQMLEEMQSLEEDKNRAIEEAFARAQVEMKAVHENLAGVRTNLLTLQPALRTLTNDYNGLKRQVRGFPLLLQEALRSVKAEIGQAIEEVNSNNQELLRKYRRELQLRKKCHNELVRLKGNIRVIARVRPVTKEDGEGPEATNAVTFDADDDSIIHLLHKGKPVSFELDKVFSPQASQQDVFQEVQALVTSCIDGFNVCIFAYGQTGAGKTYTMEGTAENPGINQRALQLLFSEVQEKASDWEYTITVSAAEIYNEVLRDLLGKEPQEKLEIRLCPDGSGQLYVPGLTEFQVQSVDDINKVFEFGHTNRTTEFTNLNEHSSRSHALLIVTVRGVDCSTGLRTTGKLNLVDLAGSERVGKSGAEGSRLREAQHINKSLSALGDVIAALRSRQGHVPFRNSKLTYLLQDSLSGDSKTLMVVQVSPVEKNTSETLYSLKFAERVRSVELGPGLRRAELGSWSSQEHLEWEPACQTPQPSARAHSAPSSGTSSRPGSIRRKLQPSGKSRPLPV
UniProt Q9H9V9: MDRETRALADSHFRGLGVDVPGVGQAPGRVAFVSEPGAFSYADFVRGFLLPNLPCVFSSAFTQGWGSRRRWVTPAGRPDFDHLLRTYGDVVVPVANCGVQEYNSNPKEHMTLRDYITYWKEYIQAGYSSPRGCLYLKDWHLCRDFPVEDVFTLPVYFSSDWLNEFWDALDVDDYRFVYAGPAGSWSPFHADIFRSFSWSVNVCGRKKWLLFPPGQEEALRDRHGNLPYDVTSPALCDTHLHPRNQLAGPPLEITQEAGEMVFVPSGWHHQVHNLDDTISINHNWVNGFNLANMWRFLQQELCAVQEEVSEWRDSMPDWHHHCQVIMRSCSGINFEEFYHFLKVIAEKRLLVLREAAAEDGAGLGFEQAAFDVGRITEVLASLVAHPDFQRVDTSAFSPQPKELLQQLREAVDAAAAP
UniProt Q13601: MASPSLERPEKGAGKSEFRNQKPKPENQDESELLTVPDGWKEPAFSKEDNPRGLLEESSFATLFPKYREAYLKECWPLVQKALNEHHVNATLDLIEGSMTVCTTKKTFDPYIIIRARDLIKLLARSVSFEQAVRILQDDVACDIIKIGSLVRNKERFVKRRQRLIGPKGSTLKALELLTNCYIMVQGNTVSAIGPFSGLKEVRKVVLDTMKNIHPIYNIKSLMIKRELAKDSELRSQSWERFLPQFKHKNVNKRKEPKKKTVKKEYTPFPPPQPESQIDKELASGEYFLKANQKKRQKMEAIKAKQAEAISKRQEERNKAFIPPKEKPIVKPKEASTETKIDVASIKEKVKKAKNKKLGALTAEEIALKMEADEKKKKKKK
UniProt O94854: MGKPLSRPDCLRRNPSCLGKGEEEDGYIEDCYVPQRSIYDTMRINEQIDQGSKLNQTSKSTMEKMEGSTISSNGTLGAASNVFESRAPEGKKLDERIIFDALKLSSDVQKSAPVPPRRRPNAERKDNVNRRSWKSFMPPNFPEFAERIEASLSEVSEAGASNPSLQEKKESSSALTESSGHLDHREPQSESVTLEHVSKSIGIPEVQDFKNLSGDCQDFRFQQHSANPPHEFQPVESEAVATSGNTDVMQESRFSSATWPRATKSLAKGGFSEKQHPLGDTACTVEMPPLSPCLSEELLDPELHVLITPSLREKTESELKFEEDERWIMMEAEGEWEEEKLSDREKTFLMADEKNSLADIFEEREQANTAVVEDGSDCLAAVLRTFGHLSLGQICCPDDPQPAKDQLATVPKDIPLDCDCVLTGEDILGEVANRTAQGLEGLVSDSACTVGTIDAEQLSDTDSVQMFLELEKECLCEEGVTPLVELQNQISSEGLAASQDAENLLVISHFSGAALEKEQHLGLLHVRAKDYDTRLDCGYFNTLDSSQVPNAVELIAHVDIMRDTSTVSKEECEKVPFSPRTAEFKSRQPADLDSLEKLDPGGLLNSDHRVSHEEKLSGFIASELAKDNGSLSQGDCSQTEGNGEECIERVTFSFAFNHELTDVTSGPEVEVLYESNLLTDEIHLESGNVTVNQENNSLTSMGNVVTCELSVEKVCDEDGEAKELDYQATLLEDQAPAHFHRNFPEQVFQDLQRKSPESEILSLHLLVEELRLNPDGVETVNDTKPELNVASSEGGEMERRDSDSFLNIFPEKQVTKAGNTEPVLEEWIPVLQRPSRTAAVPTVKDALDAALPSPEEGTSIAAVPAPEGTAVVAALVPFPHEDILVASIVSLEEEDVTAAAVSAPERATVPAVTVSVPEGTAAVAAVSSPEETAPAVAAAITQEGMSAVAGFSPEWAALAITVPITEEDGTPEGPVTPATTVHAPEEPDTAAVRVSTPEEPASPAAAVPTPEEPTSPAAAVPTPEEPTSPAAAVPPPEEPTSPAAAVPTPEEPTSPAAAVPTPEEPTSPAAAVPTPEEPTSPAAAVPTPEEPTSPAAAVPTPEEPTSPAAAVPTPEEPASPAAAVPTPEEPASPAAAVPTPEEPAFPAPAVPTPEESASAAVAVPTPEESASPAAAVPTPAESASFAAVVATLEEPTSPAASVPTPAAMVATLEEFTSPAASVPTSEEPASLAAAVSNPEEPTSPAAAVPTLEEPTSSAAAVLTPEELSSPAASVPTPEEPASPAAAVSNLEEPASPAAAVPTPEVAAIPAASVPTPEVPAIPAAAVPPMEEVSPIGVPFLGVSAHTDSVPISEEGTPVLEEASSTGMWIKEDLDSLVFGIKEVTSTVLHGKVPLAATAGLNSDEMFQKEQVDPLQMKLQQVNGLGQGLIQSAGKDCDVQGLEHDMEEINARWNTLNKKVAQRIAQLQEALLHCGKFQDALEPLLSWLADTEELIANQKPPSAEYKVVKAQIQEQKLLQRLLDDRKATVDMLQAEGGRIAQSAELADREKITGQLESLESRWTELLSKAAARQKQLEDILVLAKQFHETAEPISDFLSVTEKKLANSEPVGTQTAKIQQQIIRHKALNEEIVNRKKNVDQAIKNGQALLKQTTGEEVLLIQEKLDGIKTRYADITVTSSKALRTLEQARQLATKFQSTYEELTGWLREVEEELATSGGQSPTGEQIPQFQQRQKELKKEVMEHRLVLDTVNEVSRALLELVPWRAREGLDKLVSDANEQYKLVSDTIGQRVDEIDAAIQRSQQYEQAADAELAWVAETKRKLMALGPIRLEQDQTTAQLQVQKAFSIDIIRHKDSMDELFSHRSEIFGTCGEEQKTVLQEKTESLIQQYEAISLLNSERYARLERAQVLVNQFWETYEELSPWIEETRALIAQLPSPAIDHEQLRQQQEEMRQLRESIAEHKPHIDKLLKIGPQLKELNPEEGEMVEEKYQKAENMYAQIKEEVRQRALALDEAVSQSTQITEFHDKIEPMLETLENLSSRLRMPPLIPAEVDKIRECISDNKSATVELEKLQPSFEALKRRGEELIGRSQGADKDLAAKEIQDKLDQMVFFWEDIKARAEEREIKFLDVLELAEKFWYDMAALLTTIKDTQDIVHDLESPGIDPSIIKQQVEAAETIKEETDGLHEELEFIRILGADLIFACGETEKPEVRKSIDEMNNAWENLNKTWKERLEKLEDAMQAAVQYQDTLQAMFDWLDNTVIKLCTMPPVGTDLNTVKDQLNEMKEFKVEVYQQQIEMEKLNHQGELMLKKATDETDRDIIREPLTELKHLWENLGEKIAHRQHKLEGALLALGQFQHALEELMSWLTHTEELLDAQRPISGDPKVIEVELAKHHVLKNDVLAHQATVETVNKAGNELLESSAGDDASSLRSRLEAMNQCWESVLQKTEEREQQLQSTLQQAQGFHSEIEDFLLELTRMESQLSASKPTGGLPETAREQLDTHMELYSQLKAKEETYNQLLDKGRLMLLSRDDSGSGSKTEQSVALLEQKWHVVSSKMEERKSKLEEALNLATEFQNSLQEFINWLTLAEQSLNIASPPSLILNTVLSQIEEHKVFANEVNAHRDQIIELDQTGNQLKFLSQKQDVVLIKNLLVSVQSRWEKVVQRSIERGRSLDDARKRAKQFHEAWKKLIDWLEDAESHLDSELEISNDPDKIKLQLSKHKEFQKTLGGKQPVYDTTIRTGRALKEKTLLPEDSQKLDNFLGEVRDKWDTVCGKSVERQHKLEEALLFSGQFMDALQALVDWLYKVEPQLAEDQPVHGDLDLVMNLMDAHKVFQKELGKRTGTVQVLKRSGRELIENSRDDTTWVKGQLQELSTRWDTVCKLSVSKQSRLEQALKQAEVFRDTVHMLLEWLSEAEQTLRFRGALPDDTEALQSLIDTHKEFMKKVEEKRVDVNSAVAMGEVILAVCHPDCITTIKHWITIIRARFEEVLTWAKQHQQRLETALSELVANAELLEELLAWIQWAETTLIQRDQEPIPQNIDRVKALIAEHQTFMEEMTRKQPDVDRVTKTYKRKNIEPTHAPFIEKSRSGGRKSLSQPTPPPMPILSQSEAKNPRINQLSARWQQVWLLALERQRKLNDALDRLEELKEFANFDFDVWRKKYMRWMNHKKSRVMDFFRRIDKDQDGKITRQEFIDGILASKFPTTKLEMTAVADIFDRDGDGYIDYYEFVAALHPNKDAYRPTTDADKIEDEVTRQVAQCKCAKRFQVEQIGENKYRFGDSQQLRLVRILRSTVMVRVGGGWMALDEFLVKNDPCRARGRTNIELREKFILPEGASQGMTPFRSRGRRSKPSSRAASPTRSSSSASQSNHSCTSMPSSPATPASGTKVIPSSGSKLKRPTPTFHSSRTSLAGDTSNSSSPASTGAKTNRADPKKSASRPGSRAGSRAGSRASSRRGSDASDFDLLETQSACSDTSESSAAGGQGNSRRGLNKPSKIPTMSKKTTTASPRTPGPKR
UniProt Q92845: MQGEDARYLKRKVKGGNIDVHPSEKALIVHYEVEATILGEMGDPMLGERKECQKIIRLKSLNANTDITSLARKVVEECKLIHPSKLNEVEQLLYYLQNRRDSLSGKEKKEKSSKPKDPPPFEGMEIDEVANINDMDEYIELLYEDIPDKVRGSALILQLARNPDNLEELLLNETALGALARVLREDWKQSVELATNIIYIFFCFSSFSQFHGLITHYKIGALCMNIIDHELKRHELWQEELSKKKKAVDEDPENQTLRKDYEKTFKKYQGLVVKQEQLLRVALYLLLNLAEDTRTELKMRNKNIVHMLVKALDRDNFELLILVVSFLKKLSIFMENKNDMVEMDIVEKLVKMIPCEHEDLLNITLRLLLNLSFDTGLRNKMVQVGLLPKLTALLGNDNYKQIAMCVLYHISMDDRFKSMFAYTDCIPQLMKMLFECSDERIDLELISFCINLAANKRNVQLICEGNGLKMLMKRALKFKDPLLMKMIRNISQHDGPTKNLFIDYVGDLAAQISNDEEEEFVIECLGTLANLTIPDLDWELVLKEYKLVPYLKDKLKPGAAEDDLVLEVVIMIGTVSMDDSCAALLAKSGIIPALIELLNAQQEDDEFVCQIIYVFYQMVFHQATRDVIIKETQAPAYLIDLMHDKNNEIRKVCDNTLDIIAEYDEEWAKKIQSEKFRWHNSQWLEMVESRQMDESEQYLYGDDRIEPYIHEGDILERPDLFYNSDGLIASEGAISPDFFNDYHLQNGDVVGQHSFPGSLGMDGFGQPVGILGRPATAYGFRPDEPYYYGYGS
UniProt P01591, whole entry, looked up: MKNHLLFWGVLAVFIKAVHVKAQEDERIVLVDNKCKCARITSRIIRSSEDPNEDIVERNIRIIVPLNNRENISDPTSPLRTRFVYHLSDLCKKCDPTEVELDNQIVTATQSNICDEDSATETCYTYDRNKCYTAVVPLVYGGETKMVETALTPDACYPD

Columns and labels:
Assay in all cases: log2 fold change, soluble protein after heating vs DMSO (PISA); higher = thermal stabilisation; K562 cells, 10 uM, 30 min; active = over 0.2 and 3.5 SD of the protein, either way, in both replicates (recomputed)
[1] = compound: C#Cc1cccc(Nc2ncnc3cc(OCCOC)c(OCCOC)cc23)c1 [erlotinib]
Outline: (§1)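 Thermal stability values are relative to control samples and come from duplicates. They are expressed as log2 fold changes. For measurement, K562 cells (2×10^6 cells/mL) received 10 μM compound for 30 min, and aliquots were heated for 3 min over 48°C-58°C, pooled, and extracted at 4°C in PBS with 0.5% NP-40. Soluble protein, the supernatant after 21,000xg for 90 min, was quantified by TMTpro 16plex LC-MS/MS with equalised channel sums.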

[2] = compound: C1=CC(=C(C=C1Cl)C2=NC3=NC=CN=C3C(=N2)NC4=CC=NC=C4)F
Outline: as §1

[3] = compound: C1=CC(=CC=C1C2=NC3=C(N2)C=C(C=C3)C(=O)N)OC4=CC=C(C=C4)Cl
Outline: as §1

[4] = compound: C1=CC2=NC=CN=C2C=C1/C=C/3\C(=O)NC(=O)S3
Outline: as §1

[5] = compound: C1=CC=C(C=C1)C2=NC(=C(N2)C3=CC=NC=C3)C4=CC(=C(C=C4)Cl)O
Outline: as §1

[6] = compound: C1COCCN1CCN2C3=CC=CC=C3N=C2NC(=O)C4=CC(=CC=C4)[N+](=O)[O-] [IRAK-1-4 Inhibitor I]
Outline: as §1

[7] = compound: C=CC(=O)N1CCC[C@@H](n2nc(-c3ccc(Oc4ccccc4)cc3)c3c(N)ncnc32)C1 [ibrutinib]
Outline: as §1

[8] = compound: CC(C)(C)Cn1c(N)nc2ccc(-c3[nH]c(C(C)(C)C)nc3-c3ccc(F)cc3)nc21 [ralimetinib]
Outline: as §1

[9] = compound: CC(C)(O)CC(=O)NCCn1ccc2ncnc(Nc3ccc(Oc4cccc(C(F)(F)F)c4)c(Cl)c3)c21
Outline: as §1

[10] = compound: CC(C)C1=C2N=C(C=C(N2N=C1)NCC3=CC=CC=C3)NCCCCCCN
Outline: as §1

[11] = compound: CC(C)C[C@@H](C=O)NC(=O)[C@H](CC(C)C)NC(=O)[C@H](CC(C)C)NC(=O)OCc1ccccc1
Outline: as §1

[12] = compound: CC(C)N(C[C@H]1O[C@@H](n2cnc3c(N)ncnc32)[C@H](O)[C@@H]1O)[C@H]1C[C@@H](CCc2nc3cc(C(C)(C)C)ccc3[nH]2)C1 [pinometostat]
Outline: as §1

[13] = compound: CC1=C(C(CC(=O)N1)C2=CC=C(C=C2)C(F)(F)F)C(=O)NC3=C(C=C4C(=C3)C=NN4)F
Outline: as §1

[14] = compound: C1CCN(C1)C(=O)NC2=CC=CC(=C2)NC3=NC=C(C(=N3)NCCC4=CN=CN4)Br
Outline: as §1

[15] = compound: C1CN(CCC1(CC2=CC=C(C=C2)Cl)N)C3=NC=NC4=C3C=CN4
Outline: as §1

[16] = compound: CC1=C(C2=C(C=C1)C(=O)C3=CC=CC=C3N2CCCN)C
Outline: as §1

[17] = compound: C/C(=N\NC(=O)C1=CC(=CC=C1)S(=O)(=O)N2CCOCC2)/C3=C(C=CC(=C3)Cl)O
Outline: as §1

[18] = compound: C1=CC2=C(C=CC(=C2)/C=C\3/C(=O)NC(=NCC4=CC=CS4)S3)N=C1
Outline: as §1

[19] = compound: C1=CC=C2C(=C1)C3=NNC4=CC=CC(=C43)C2=O
Outline: as §1

[20] = compound: CC(=O)c1cnc2ccc(-c3cc(Cl)c(O)c(Cl)c3)nc2c1N[C@H]1CC[C@H](CN(C)C)CC1
Outline: as §1

Measured: log2 fold change

KCNK1 (UniProt O00180)
inactive: [1] -0.06 | [2] -0.044 | [3] 0.028 | [4] 0.048 | [5] -0.06 | [6] 0.043 | [7] 0.146 | [8] 0.197 | [9] -0.025 | [10] -0.069 | [11] 0.123 | [12] -0.03 | [13] 0.179

KDELR1 (UniProt P24390)
inactive: [1] -0.092 | [2] -0.07 | [3] 0.004 | [4] -0.151 | [5] -0.104 | [14] -0.052 | [15] 0.136 | [6] 0.061 | [7] 0.115 | [8] -0.08 | [9] 0.081 | [10] 0.141 | [11] -0.028 | [12] -0.003 | [13] 0.039 | [16] -0.132

KIF21A (UniProt H0YI78)
inactive: [1] 0.077 | [3] -0.137 | [5] 0.1 | [8] 0.366 | [10] -0.158 | [11] 0.012

KRIT1 (UniProt O00522)
inactive: [1] 0.07 | [2] 0.19 | [3] 0.007 | [4] 0.163 | [5] -0.118 | [7] 0.434 | [8] -0.026 | [9] -0.011 | [10] 0.022 | [11] -0.048 | [13] -0.206

KBTBD8 (UniProt Q8NFY9)
inactive: [17] -0.046 | [2] -0.061 | [18] 0.1 | [4] 0.096 | [5] -0.054 | [19] 0.135 | [14] 0.074 | [15] -0.156 | [6] -0.319 | [7] -0.054 | [20] -0.043 | [8] 0.09 | [9] -0.086 | [11] -0.058 | [12] 0.049 | [13] 0.121 | [16] 0.268

Copied from the results shown (two entries):
KCNK1 (UniProt O00180)
inactive: [1] -0.06 | [2] -0.044 | [3] 0.028 | [4] 0.048 | [5] -0.06 | [6] 0.043 | [7] 0.146 | [8] 0.197 | [9] -0.025 | [10] -0.069 | [11] 0.123 | [12] -0.03 | [13] 0.179

KDELR1 (UniProt P24390)
inactive: [1] -0.092 | [2] -0.07 | [3] 0.004 | [4] -0.151 | [5] -0.104 | [14] -0.052 | [15] 0.136 | [6] 0.061 | [7] 0.115 | [8] -0.08 | [9] 0.081 | [10] 0.141 | [11] -0.028 | [12] -0.003 | [13] 0.039 | [16] -0.132

Continued.

KNL1 (UniProt Q8NG31)
inactive: [1] 0.166 | [2] -0.338 | [3] 0.099 | [5] -0.163 | [14] -0.037 | [15] 0.136 | [6] -0.261 | [8] 0.177 | [9] -0.024 | [10] 0.111 | [11] 0.188 | [12] 0.352 | [16] 0.085

KLHL20 (UniProt Q9Y2M5)
inactive: [1] -0.091 | [17] -0.081 | [3] -0.019 | [18] 0.034 | [5] -0.078 | [19] 0.018 | [14] 0.001 | [15] 0.023 | [20] -0.075 | [8] 0.065 | [10] 0.442 | [11] -0.007 | [13] -0.078 | [16] -0.086

KDM3A (UniProt Q9Y4C1)
inactive: [1] 0.148 | [3] -0.08 | [10] 0.083

KIFC3 isoform 6 (UniProt Q9BVG8)
inactive: [1] 0.154 | [2] -0.098 | [3] -0.025 | [4] 0.074 | [5] -0.227 | [14] 0.071 | [15] -0.06 | [7] -0.125 | [8] -0.292 | [9] 0 | [10] -0.073 | [11] 0.273 | [13] 0.044 | [16] -0.112

KLF1 (UniProt Q13351)
inactive: [4] 0.092 | [5] 0.048 | [6] -0.053 | [7] -0.057 | [8] 0.113 | [11] 0.157 | [12] 0.153 | [13] -0.165

KIF20B isoform 2 (UniProt Q96Q89)
inactive: [5] -0.177 | [8] 0.054 | [11] 0.224

KLHL42 (UniProt Q9P2K6)
inactive: [2] 0.001 | [4] -0.051 | [14] 0.017 | [15] -0.102 | [7] -0.021 | [9] 0.019 | [16] 0.049

KLHL36 (UniProt Q8N4N3)
inactive: [2] -0.049 | [9] -0.1 | [13] -0.348

JMJD8 (UniProt Q96S16)
inactive: [17] 0.098 | [18] 0.061 | [5] 0.066 | [19] -0.002 | [6] -0.021 | [20] -0.025 | [8] 0.011 | [11] -0.066 | [12] 0.018 | [13] -0.098

KIF4A (UniProt O95239)
inactive: [14] -0.178 | [15] -0.462 | [16] -0.021

KRT10, A0A1B0GVI3
inactive: [13] 0.012

KIF20A (UniProt O95235)
inactive: [17] -0.256 | [2] -0.041 | [18] 0.097 | [19] 0.162 | [20] 0.16 | [9] -0.234

KCTD7 (UniProt Q96MP8)
inactive: [4] -0.32 | [7] -0.06 | [13] -0.092

ITSN1 (UniProt Q15811)
inactive: [17] -0.04 | [2] 0.101 | [18] 0.145 | [19] -0.01 | [20] 0.005 | [9] -0.132

KCTD21 (UniProt Q4G0X4)
inactive: [17] 0.179 | [18] 0.069 | [19] -0.138 | [20] 0.226

JMJD4 (UniProt Q9H9V9)
inactive: [17] 0.098 | [18] 0.126 | [4] -0.065 | [19] 0.172 | [6] 0.166 | [7] -0.077 | [20] -0.139 | [12] -0.152 | [13] -0.171

KLC1 isoform 3 (UniProt Q07866)
inactive: [17] -0.111 | [18] 0.009 | [19] -0.047 | [20] -0.092

KLC3 isoform 3 (UniProt Q6P597)
inactive: [14] -0.054 | [15] 0.054 | [16] -0.104

KRR1 (UniProt Q13601)
inactive: [6] -0.46 | [12] 0.378

KIAA0754 (UniProt O94854)
inactive: [2] -0.222 | [4] -0.131 | [5] 0.002 | [14] 0.037 | [15] 0.041 | [7] 0.003 | [8] -0.013 | [9] 0.246 | [11] 0.07 | [16] -0.173

KDM2B (UniProt Q8NHM5)
inactive: [4] 0.057 | [7] -0.001

KIFC1 (UniProt Q9BW19)
inactive: [17] 0.027 | [2] -0.058 | [18] 0.205 | [5] -0.035 | [19] -0.051 | [20] -0.123 | [8] 0.094 | [9] 0.154 | [11] 0.464

KIF1C (UniProt O43896)
inactive: [4] 0.076 | [6] -0.51 | [7] 0.015 | [12] 0.261

KIDINS220 isoform 2 (UniProt Q9ULH0)
inactive: [2] 0.087 | [4] -0.087 | [14] -0.008 | [15] 0.081 | [6] 0.012 | [7] 0.088 | [9] 0.116 | [12] -0.045 | [13] 0.148 | [16] 0.125

KIFAP3 (UniProt Q92845)
inactive: [2] 0.015 | [4] -0.115 | [6] 0.104 | [7] 0.178 | [9] -0.024 | [12] 0.038 | [13] -0.123

KHSRP (UniProt M0R3J3)
inactive: [2] -0.059 | [9] 0.224

KLHL17 (UniProt Q6TDP4)
inactive: [2] -0.336 | [9] -0.08

KRT87P (UniProt A6NCN2)
inactive: [4] 0.054 | [7] 0.231

KIZ (UniProt Q2M2Z5)
inactive: [17] 0.018 | [18] 0.077 | [5] 0.103 | [19] -0.01 | [6] -0.075 | [20] 0.039 | [8] 0.06 | [11] -0.107 | [12] 0.099

KIF16B isoform 2 (UniProt Q96L93)
inactive: [17] -0.086 | [18] -0.053 | [5] 0.038 | [19] -0.088 | [20] -0.241 | [8] -0.104 | [11] 0.008

KDM6A (UniProt O15550)
inactive: [17] 0.138 | [2] -0.052 | [18] 0.065 | [5] -0.038 | [19] 0.079 | [20] -0.3 | [8] 0 | [9] -0.344 | [11] 0.086

JCHAIN (UniProt P01591)
inactive: [4] -0.227 | [7] -0.089 | [13] -0.193

KATNBL1 (UniProt Q9H079)
inactive: [5] 0.015 | [14] 0.191 | [15] -0.06 | [8] 0.187 | [11] -0.163 | [16] -0.083

KLHDC10 (UniProt Q6PID8)
inactive: [14] -0.184 | [15] 0.11 | [16] 0.038

KCTD1 (UniProt Q719H9)
inactive: [2] 0.003 | [14] 0.044 | [15] 0.019 | [6] -0.048 | [9] -0.043 | [12] -0.031 | [13] -0.129 | [16] 0.011

KIF13A isoform 4 (UniProt Q9H1H9)
inactive: [17] 0.21 | [18] 0.161 | [19] 0.021 | [20] 0.123

KLHDC2 (UniProt Q9Y2U9)
inactive: [13] -0.073
